Experimental data as given in paper doi:10.1101/2024.06.07.597857.
These are yes or no findings as the source states them, for the method shown. Binding seen in cells or lysates may run through a third protein. Some results given as binding are weak or reduced against the parent protein; the word gives no strength.

By UniProt entry, the sequences of proteins in these tests, tags left out.
UniProt P35222: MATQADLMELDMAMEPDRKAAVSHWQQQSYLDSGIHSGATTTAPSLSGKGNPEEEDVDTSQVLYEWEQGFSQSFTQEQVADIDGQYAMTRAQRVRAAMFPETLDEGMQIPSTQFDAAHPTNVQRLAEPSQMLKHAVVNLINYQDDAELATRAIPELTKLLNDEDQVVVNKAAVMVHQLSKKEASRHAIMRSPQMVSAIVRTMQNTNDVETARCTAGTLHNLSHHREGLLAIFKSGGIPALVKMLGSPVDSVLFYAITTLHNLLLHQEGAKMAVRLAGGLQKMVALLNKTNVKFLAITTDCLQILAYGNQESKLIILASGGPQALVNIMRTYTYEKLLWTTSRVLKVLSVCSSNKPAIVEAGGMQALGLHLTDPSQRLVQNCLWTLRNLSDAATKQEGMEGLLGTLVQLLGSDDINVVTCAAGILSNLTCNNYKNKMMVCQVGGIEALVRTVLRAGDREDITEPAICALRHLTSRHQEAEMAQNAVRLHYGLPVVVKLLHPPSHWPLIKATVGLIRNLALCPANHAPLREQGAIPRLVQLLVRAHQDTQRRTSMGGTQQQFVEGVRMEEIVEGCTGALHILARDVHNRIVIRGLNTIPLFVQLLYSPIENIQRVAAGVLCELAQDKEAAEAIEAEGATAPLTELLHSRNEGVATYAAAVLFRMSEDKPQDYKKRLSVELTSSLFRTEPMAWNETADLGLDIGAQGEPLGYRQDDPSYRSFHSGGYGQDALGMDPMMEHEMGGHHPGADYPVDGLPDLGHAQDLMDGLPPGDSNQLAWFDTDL
UniProt Q7Z4V5: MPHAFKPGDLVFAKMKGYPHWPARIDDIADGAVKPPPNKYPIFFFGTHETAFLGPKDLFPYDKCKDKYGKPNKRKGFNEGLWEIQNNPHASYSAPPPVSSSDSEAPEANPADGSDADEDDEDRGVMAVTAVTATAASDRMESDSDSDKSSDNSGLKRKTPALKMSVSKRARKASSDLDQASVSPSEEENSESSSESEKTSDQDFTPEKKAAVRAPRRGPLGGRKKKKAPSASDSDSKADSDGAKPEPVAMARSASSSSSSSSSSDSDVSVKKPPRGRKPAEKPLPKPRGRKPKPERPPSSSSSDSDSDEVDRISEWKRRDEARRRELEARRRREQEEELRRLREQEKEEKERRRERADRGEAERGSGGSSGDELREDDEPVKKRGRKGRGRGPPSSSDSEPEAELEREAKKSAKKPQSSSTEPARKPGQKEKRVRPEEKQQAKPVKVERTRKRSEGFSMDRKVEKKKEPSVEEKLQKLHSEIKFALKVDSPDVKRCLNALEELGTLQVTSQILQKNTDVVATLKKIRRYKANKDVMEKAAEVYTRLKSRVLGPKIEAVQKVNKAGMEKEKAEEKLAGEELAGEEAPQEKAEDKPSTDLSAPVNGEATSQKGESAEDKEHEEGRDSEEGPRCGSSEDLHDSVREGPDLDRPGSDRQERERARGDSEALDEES

Molecular target: β-catenin (human (endogenous in ovarian carcinoma cells)) (UniProt P35222)
Test: co-IP

- binding: binds
Substance: hepatoma-derived growth factor related protein 2 (HRP2) (from UniProt Q7Z4V5 1-671)
